From the supplement of paper PMC6078165

Tested on: HCC1143
Assay: relative JC-1 red fluorescence (viability) vs pre-drug, coculture with fibroblast (fraction); higher = more viable cancer cells
Experimental: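 JC-1 labelled TNBC cells cocultured 1:1 (1,500 cells each) with CellTrace Violet stained primary or stromal fibroblasts in 384-well plates in FluoroBrite medium, treated with one of 42 anticancer drugs at 0.1, 1, 10 or 100 uM. JC-1 red fluorescence (mitochondrial integrity in cancer cells only) was read by plate reader every 8 h for 72 h. Values are normalised to each well's pre-drug value. The stock of one drug was tenfold lower, so its dose labels may be too high.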

O=C(O)C1(C(=O)O)CCC1.[NH2-].[NH2-].[Pt+2] [Carboplatin]
relative JC-1 red fluorescence
Conditions	8 h	16 h	24 h	32 h	40 h	48 h	56 h	64 h	72 h
0.1 µM, coculture fibroblast: C12385	0.881	0.804	0.721	0.647	0.57	0.512	0.46	0.414	0.391
0.1 µM, coculture fibroblast: H6013	0.779	0.6808	0.639	0.616	0.551	0.527	0.49	0.468	0.44
0.1 µM, coculture fibroblast: H6019	0.797	0.7173	0.67	0.609	0.562	0.537	0.485	0.439	0.399
0.1 µM, coculture fibroblast: H6076	0.807	0.762	0.712	0.701	0.628	0.6226	0.5888	0.568	0.586
0.1 µM, coculture fibroblast: H6231	0.807	0.784	0.697	0.621	0.592	0.562	0.521	0.492	0.46
0.1 µM, coculture fibroblast: HADF	0.7137	0.629	0.587	0.591	0.498	0.467	0.43	0.4	0.381
0.1 µM, coculture fibroblast: HCFa	0.811	0.732	0.709	0.693	0.612	0.587	0.539	0.502	0.481
0.1 µM, coculture fibroblast: HCPF	0.802	0.792	0.722	0.651	0.632	0.604	0.564	0.534	0.517
0.1 µM, coculture fibroblast: HHSteC	0.819	0.733	0.703	0.677	0.596	0.559	0.524	0.494	0.457
0.1 µM, coculture fibroblast: HMF	0.808	0.813	0.744	0.705	0.649	0.623	0.588	0.563	0.54
0.1 µM, coculture fibroblast: HPFa	0.911	0.821	0.776	0.689	0.627	0.597	0.535	0.487	0.443
0.1 µM, coculture fibroblast: HUF	0.8622	0.7542	0.696	0.6119	0.5658	0.5408	0.4935	0.459	0.425
0.1 µM, coculture fibroblast: Hs5	0.834	0.8158	0.779	0.76	0.658	0.634	0.594	0.56	0.549
0.1 µM, coculture fibroblast: Hs27A	0.685	0.582	0.549	0.569	0.434	0.412	0.363	0.326	0.303
0.1 µM, coculture fibroblast: Hs343T	0.804	0.816	0.742	0.6932	0.643	0.61	0.567	0.534	0.521
0.1 µM, coculture fibroblast: WS1	0.842	0.754	0.698	0.627	0.568	0.518	0.47	0.431	0.405
1 µM, coculture fibroblast: C12385	0.819	0.767	0.695	0.617	0.54	0.491	0.452	0.405	0.384
1 µM, coculture fibroblast: H6013	0.74	0.698	0.667	0.659	0.599	0.586	0.542	0.53	0.489
1 µM, coculture fibroblast: H6019	0.772	0.699	0.66	0.602	0.566	0.543	0.496	0.451	0.41
1 µM, coculture fibroblast: H6076	0.79	0.753	0.709	0.681	0.635	0.625	0.602	0.59	0.597
1 µM, coculture fibroblast: H6231	0.786	0.7558	0.6852	0.621	0.571	0.542	0.5	0.465	0.456
1 µM, coculture fibroblast: HADF	0.737	0.672	0.635	0.627	0.543	0.521	0.487	0.462	0.433
1 µM, coculture fibroblast: HCFa	0.7702	0.688	0.644	0.615	0.532	0.504	0.4514	0.4177	0.3852
1 µM, coculture fibroblast: HCPF	0.7604	0.737	0.677	0.604	0.581	0.545	0.505	0.471	0.458
1 µM, coculture fibroblast: HHSteC	0.802	0.755	0.728	0.694	0.632	0.61	0.565	0.536	0.483
1 µM, coculture fibroblast: HMF	0.783	0.787	0.746	0.689	0.669	0.638	0.59	0.568	0.5508
1 µM, coculture fibroblast: HPFa	0.902	0.831	0.813	0.724	0.675	0.639	0.571	0.524	0.481
1 µM, coculture fibroblast: HUF	0.884	0.826	0.787	0.73	0.695	0.678	0.636	0.619	0.593
1 µM, coculture fibroblast: Hs5	0.85	0.79	0.776	0.774	0.682	0.663	0.638	0.6192	0.6136
1 µM, coculture fibroblast: Hs27A	0.735	0.673	0.616	0.618	0.497	0.489	0.444	0.415	0.385
1 µM, coculture fibroblast: Hs343T	0.7934	0.84	0.7703	0.664	0.651	0.596	0.538	0.508	0.475
1 µM, coculture fibroblast: WS1	0.7872	0.726	0.688	0.5987	0.542	0.505	0.462	0.428	0.398

Values are relative to the signal before dosing, not to a vehicle control; the signal also falls without drug.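 Fibroblast labels denote human fibroblasts, mainly primary ones from uterus (C12385, HUF), lung (H6013), bone (Hs27A), adrenal (HADF) and skin (WS1), plus mammary HMF and breast cancer-associated Hs343T. Cancer cells are basal-like or mesenchymal-like triple-negative breast cancer lines. A hit is a response shift exceeding 3x replicate standard deviation. The tissue of the other fibroblasts is not given here.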
